No constants are given. Whether binding was seen depends on the method and setting. Binding seen in cells or lysates may run through a third protein. Binding calls can cover weak binding; strength is not graded here. Where a sequence is shown, tags or fusion partners need not be part of it.
Biological target: VN-coupled megalin mini receptor 4 (rat MMR4 fused to the N-terminal part of Venus) (rat)
Assay: split reporter; Venus-based bimolecular fluorescence complementation in co-transfected opossum kidney cells; read 8, 24, 48 or 72 h after transfection; also after endocytosis induction with albumin or lactoglobulin for 5 and 15 min

B1: VC-coupled FcRn (rat neonatal Fc receptor fused to the C-terminal part of Venus) (receptor, UniProt P13599 23-366)
chain: AEPRLPLMYHLAAVSDLSTGLPSFWATGWLGAQQYLTYNNLRQEADPCGAWIWENQVSWYWEKETTDLKSKEQLFLEAIRTLENQINGTFTLQGLLGCELAPDNSSLPTAVFALNGEEFMRFNPRTGNWSGEWPETDIVGNLWMKQPEAARKESEFLLTSCPERLLGHLERGRQNLEWKEPPSMRLKARPGNSGSSVLTCAAFSFYPPELKFRFLRNGLASGSGNCSTGPNGDGSFHAWSLLEVKRGDEHHYQCQVEHEGLAQPLTVDLDSPARSSVPVVGIILGLLLVVVAIAGGVLLWNRMRSGLPAPWLSLSGDDSGDLLPGGNLPPEAEPQGVNAFPATS
binding: binds

— article PMC9818419
